The values that follow come from article PMC4202153.

Amino acid sequences for entries named in this document (tags omitted).
UniProt Q92769: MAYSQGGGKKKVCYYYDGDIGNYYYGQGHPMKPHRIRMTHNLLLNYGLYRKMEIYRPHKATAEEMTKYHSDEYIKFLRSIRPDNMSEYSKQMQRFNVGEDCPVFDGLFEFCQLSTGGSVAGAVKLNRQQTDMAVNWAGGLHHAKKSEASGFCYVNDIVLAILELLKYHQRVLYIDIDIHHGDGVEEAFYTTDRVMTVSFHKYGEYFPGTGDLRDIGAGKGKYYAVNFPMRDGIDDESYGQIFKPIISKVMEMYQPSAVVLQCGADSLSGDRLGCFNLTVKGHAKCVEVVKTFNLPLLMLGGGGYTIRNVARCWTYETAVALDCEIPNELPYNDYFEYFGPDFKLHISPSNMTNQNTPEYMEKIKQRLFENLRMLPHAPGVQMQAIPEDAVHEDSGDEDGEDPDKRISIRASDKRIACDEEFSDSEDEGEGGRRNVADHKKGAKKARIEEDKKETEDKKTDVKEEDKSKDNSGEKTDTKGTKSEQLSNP
UniProt Q13547: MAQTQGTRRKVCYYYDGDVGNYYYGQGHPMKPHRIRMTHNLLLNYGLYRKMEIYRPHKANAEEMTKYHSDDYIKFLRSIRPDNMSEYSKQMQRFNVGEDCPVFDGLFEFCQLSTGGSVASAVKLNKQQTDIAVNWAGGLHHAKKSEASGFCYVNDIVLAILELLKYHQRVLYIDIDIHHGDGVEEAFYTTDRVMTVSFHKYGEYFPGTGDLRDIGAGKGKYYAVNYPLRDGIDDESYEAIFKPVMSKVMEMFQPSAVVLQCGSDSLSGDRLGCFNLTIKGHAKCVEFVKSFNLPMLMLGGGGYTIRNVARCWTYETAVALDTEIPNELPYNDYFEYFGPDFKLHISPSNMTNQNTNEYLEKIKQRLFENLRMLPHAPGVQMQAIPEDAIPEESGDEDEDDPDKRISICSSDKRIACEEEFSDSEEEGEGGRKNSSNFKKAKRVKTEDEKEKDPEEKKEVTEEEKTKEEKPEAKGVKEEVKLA

The target of this experiment is T1, TRPS1 (human (endogenous in the paper's human breast cell lines; line not named for this experiment)) (UniProt Q9UHF7).
T1 sequence: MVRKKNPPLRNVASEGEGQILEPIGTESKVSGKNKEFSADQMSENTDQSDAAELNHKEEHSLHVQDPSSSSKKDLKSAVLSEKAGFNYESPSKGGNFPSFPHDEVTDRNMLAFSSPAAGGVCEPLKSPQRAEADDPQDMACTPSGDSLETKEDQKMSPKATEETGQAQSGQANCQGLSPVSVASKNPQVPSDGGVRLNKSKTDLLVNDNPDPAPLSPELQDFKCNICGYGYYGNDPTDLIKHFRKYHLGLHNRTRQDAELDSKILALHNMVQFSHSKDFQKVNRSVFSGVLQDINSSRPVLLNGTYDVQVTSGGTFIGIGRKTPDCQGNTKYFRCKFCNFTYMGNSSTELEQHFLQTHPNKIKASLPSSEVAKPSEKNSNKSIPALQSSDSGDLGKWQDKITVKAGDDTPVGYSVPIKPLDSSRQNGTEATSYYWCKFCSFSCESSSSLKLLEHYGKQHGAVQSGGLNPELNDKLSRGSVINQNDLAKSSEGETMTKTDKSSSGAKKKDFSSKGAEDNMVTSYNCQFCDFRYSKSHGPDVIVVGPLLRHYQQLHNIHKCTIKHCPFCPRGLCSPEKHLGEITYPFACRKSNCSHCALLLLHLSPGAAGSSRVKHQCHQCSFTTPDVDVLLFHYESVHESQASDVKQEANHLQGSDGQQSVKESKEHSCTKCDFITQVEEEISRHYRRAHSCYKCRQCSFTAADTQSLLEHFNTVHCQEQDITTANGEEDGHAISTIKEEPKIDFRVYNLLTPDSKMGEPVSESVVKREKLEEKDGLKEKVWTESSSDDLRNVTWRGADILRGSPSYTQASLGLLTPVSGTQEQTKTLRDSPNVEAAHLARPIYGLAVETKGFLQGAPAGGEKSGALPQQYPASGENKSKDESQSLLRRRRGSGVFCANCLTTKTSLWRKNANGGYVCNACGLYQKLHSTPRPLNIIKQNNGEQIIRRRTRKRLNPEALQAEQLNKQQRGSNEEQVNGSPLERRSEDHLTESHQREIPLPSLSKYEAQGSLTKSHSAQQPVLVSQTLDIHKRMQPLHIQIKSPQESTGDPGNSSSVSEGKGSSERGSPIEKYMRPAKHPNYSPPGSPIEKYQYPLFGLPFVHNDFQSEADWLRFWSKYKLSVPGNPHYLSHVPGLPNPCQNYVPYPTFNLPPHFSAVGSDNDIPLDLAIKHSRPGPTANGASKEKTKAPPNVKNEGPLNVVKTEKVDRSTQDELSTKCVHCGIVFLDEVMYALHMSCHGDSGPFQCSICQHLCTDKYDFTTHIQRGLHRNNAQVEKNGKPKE
Kind of experiment: co-IP; immunoprecipitation with anti-TRPS1 antibody (R&D Systems) against control polyclonal IgG on Dynabeads Protein G; western blot of the precipitated proteins. (A western blot detects proteins with antibodies after separation by electrophoresis.)

No constants are given. Whether binding was seen depends on the method and setting. Binding seen in cells or lysates may run through a third protein. Some results given as binding are weak or reduced against the parent protein; the word gives no strength. Tags and fused reporters may be left off the sequences shown.

Take “HDAC2 (from UniProt Q92769 1-488) (enzyme)”: the binding entry was “binds”.
The result for “HDAC1 (from UniProt Q13547 1-482) (enzyme)” reads “binds”.
